In the supplement of paper PMC12819154, “High-throughput peptide-centric local stability assay extends protein–ligand identification to membrane proteins, tissues and bacteria” (Nature Structural & Molecular Biology, 2025) one finds log2 fold change data, which are given here for 38 targets.

Chains of the proteins cited; added tags and fusions are not shown. Lines headed by an entry give the natural chain unless they say otherwise; changes in a name come on top.
UniProt Q9UQ16: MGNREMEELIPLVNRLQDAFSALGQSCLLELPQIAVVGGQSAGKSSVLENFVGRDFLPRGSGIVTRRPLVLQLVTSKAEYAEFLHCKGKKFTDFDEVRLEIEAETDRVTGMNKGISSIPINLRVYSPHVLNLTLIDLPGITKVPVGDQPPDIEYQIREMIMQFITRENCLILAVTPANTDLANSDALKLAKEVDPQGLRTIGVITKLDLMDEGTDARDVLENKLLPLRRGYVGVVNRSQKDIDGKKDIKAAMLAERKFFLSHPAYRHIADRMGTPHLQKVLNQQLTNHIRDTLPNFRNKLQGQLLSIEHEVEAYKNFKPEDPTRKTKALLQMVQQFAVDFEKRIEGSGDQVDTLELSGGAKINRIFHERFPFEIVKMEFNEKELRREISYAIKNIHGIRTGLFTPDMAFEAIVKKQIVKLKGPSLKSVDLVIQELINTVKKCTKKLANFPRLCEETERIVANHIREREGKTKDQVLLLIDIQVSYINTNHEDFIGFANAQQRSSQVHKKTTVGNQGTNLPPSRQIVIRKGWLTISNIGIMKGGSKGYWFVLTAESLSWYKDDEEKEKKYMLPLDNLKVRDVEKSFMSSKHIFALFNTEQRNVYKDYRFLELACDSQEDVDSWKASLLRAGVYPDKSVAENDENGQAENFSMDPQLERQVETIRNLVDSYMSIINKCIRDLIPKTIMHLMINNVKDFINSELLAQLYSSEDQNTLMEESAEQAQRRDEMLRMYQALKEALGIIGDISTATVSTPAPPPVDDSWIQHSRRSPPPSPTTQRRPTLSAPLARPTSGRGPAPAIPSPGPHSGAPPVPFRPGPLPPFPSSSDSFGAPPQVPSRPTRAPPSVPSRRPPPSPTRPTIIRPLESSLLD
UniProt Q9UJ83: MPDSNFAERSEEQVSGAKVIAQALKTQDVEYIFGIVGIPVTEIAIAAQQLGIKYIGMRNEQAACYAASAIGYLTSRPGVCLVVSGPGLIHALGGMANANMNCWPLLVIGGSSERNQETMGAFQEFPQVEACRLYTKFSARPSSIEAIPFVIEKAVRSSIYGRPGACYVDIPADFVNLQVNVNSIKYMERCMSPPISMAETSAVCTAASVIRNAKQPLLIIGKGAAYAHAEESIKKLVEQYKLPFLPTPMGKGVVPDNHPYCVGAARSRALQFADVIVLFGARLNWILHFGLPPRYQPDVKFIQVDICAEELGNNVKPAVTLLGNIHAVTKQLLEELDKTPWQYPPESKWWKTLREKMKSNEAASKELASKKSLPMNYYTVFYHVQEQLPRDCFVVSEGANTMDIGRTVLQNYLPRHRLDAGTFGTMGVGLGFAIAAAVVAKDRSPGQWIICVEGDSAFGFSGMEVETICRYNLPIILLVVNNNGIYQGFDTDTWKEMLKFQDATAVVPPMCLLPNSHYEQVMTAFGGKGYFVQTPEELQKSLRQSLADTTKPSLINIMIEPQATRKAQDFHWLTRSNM
UniProt Q9UKT5: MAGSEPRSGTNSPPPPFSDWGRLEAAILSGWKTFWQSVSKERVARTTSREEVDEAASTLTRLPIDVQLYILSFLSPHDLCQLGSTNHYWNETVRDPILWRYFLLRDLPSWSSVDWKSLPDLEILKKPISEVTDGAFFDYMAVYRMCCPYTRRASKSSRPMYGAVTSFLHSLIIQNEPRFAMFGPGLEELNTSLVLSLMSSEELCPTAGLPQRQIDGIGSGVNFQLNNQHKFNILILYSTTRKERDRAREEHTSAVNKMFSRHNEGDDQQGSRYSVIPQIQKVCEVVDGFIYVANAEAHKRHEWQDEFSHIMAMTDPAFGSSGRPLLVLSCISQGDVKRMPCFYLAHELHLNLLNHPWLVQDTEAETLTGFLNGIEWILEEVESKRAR
UniProt Q9UM47, whole entry: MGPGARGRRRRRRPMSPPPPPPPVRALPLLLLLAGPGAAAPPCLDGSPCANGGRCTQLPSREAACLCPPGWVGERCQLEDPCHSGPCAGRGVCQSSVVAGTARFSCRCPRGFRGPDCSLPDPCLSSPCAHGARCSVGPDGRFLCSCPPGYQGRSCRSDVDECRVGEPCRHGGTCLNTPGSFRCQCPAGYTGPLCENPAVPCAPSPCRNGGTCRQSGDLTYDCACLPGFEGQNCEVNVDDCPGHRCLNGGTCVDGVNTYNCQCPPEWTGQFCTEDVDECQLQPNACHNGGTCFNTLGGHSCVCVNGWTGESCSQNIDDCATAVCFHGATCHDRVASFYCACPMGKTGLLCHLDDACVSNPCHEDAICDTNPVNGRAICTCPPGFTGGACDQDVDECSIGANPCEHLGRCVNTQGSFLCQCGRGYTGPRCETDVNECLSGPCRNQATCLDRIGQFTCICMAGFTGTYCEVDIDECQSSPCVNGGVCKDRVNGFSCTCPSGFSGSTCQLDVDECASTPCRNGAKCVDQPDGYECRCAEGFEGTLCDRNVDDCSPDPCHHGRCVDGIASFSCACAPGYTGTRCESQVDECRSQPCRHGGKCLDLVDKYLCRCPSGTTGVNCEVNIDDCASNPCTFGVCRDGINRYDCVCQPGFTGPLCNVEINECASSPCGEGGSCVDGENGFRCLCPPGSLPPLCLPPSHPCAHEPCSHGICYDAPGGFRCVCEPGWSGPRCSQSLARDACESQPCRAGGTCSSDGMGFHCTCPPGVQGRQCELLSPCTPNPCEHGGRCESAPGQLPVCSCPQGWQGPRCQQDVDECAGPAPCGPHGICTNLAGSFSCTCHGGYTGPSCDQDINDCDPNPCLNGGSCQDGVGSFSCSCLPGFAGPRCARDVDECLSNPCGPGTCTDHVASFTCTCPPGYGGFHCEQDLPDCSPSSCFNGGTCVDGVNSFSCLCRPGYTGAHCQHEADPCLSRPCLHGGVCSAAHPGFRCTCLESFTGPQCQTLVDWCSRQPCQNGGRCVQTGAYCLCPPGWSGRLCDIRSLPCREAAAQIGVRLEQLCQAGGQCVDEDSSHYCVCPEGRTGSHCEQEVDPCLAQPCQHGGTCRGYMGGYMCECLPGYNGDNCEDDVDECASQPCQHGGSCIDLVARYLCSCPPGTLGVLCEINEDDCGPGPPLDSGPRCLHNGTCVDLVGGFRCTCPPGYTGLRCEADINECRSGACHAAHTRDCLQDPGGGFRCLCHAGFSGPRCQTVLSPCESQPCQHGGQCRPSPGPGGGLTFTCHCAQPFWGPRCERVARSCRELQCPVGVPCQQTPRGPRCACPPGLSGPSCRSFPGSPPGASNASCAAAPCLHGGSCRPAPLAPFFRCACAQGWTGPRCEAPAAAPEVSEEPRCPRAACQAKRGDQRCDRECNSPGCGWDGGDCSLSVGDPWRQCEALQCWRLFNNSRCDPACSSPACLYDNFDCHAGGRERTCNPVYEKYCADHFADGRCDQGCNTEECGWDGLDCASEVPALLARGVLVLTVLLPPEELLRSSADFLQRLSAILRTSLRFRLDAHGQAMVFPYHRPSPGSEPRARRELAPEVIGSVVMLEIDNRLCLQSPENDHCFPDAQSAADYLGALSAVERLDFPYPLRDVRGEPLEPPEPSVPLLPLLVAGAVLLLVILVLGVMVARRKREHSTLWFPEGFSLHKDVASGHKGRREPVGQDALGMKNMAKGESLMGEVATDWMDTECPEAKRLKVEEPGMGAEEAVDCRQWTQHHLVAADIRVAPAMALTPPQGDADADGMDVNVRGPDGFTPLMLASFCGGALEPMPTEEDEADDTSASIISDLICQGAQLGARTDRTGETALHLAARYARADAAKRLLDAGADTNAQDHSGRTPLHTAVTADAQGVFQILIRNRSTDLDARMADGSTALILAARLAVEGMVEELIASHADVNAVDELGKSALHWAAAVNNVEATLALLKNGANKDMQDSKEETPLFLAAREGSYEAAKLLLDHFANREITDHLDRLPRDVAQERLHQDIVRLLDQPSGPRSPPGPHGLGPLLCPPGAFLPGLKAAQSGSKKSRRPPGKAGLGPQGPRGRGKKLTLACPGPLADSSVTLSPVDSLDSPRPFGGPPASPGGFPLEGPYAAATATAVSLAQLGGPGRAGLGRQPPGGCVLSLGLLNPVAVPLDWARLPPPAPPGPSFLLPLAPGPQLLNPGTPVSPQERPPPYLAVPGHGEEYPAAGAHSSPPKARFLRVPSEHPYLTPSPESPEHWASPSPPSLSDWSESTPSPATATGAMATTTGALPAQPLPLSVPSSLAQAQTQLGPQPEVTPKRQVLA
UniProt Q9UIE0: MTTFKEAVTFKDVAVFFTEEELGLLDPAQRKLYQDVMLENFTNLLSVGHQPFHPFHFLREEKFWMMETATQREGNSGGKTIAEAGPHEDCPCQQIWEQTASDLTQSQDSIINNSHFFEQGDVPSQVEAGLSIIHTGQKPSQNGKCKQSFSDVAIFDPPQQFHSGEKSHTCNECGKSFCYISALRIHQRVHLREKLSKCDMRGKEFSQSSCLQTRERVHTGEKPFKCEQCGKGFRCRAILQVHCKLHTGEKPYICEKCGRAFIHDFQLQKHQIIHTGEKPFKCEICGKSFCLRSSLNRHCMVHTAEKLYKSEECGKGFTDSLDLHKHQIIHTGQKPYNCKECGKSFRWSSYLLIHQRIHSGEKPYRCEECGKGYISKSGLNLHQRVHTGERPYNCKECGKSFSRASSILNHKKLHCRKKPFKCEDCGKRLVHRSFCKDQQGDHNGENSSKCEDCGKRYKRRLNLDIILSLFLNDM
UniProt Q9UJC3, whole entry: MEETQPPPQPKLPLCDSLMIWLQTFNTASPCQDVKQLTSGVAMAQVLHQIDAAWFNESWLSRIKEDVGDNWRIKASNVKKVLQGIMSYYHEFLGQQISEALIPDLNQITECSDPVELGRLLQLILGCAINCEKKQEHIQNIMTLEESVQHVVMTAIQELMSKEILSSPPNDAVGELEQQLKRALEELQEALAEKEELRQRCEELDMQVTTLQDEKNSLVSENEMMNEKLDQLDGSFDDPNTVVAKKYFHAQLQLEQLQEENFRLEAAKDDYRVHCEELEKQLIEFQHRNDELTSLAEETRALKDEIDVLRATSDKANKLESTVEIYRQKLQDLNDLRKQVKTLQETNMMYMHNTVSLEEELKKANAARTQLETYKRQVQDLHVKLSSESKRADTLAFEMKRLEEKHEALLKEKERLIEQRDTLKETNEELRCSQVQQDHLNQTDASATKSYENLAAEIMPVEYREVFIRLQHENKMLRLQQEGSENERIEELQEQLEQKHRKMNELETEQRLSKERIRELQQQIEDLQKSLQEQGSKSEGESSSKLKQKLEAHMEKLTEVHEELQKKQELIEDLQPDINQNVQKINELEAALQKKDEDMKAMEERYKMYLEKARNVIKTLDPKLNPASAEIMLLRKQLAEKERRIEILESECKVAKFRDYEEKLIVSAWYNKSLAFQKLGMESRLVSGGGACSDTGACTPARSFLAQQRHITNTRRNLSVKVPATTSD
UniProt Q9ULC3: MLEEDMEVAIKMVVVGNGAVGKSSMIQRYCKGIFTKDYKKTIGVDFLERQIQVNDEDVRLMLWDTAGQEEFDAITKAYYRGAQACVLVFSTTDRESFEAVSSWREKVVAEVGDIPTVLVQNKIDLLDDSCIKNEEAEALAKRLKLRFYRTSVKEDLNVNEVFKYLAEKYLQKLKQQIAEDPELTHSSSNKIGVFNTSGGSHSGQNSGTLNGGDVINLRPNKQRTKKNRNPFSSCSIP
UniProt Q9UKM9: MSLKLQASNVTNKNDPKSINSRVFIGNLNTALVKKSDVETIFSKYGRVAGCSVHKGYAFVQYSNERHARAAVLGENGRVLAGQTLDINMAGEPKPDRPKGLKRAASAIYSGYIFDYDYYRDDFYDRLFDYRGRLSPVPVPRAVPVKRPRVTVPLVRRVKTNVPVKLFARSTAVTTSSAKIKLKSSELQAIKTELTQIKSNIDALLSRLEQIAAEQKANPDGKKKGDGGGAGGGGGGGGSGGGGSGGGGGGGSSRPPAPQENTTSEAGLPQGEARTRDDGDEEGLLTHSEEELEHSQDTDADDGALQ
UniProt Q9UHD1: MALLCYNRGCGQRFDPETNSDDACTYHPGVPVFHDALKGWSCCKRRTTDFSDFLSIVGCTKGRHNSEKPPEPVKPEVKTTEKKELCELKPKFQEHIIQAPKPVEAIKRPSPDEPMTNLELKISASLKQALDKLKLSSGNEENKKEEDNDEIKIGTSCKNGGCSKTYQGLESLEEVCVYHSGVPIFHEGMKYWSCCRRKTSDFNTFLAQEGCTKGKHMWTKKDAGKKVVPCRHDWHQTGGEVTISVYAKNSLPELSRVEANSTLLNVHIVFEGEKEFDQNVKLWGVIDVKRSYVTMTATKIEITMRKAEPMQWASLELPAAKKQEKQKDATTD
UniProt Q9UMY4: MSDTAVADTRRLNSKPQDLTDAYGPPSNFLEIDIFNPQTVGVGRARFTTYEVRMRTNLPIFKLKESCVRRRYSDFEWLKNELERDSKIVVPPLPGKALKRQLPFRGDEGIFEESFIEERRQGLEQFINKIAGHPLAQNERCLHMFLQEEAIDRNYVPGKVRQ

The list shows a part of the results. Most entries show no effect beyond the scatter of the controls.

Compound in this assay: Cc1nc(Nc2ncc(C(=O)Nc3c(C)cccc3Cl)s2)cc(N2CCN(CCO)CC2)n1 [dasatinib]
Briefly: log2 fold change of tryptic peptide abundance, ligand vs vehicle (limited proteolysis) (log2 ratio); higher = more trypsin-susceptible (destabilized). Particulars: ligand concentration: 5 uM; sample: K562 cleared lysate.
For the target “UniProt Q9UQ16 (peptide sequence: SSVLENFVGR, peptide start residue: 45)”, the log2 fold change is -0.112. Take “PSME2 (peptide sequence: IVNPKGEEKPSMY, peptide start residue: 227) (UniProt Q9UL46)”: the log2 fold change was determined as 0.209. With “HACL1 (peptide sequence: GAAYAHAEESIKK, peptide start residue: 223) (UniProt Q9UJ83)”, the log2 fold change was determined as 0.252.

Turning to “ANKRD50 (peptide sequence: MLAMSYTCQAK, peptide start residue: 435) (UniProt Q9ULJ7)”, the log2 fold change was determined as 0.521.

For “UniProt Q9UK96 (peptide sequence: VANNSISCNR, peptide start residue: 771)”, the log2 fold change is 0.903. As for “UniProt Q9UJK0 (peptide sequence: GPGAEGGRPR, peptide start residue: 9)”, the log2 fold change was found to be 0.605. Next, “FBXO4 (peptide sequence: LEAAILSGWK, peptide start residue: 23) (UniProt Q9UKT5)”: -0.0486; “C19orf53 (peptide sequence: KNLEVGIR, peptide start residue: 51) (UniProt Q9UNZ5)”: -0.246.

“NOB1 (peptide sequence: EVVTEIRDK, peptide start residue: 32) (UniProt Q9ULX3)”: the log2 fold change was -0.167. Next, “NUP50 (peptide sequence: GIGTLHLKPTANQK, peptide start residue: 377) (UniProt Q9UKX7)”: -0.147. In the case of “DPP7 (peptide sequence: GALLVFAEHR, peptide start residue: 99) (UniProt Q9UHL4)”, the log2 fold change was 0.0565. Next, “NOTCH3 (peptide sequence: TGETALHLAAR, peptide start residue: 1927) (UniProt Q9UM47)”: -0.434; “AP4E1 (peptide sequence: KDQSQVLTQSKEEK, peptide start residue: 748) (UniProt Q9UPM8)”: 0.329; “RAB21 (peptide sequence: GNGSSQPGTAR, peptide start residue: 192) (UniProt Q9UL25)”: 0.0658. Next, “PACSIN2 (peptide sequence: EVLLEVQK, peptide start residue: 246) (UniProt Q9UNF0)”: -0.134; “UniProt Q9UIE0 (peptide sequence: ASSILNHK, peptide start residue: 580)”: 0.399.

Regarding “CNOT6 (peptide sequence: ESIEMPSGKPHLGTEK, peptide start residue: 337) (UniProt Q9ULM6)”, the log2 fold change turned out to be 0.23. On to “HOOK1 (peptide sequence: LEAAKDDYR, peptide start residue: 261) (UniProt Q9UJC3)”, for which the log2 fold change came out at 0.0988.

Consider “PTBP2 (peptide sequence: DFGNSPLHR, peptide start residue: 430) (UniProt Q9UKA9)”, for which the log2 fold change is 0.131. For the target “PSMD13 (peptide sequence: FLGCVDIK, peptide start residue: 179) (UniProt Q9UNM6)”, the log2 fold change is -0.154.

For the target “CNOT7 (peptide sequence: EMFFEDHIDDAK, peptide start residue: 243) (UniProt Q9UIV1)”, the log2 fold change is 0.121.

As for “DCTN4 (peptide sequence: RNYMPLAFSDKYGLGTR, peptide start residue: 171) (UniProt Q9UJW0)”, the log2 fold change was -0.358. Next, “COPS3 (peptide sequence: YTSQIVGR, peptide start residue: 244) (UniProt Q9UNS2)”: -0.197. On to “UniProt Q9ULV0 (peptide sequence: KELEEER, peptide start residue: 755)”, for which the log2 fold change was -0.51. With “DMTF1 (peptide sequence: NNPTLLENK, peptide start residue: 415) (UniProt Q9Y222)”, the log2 fold change came out at 0.222. Next, “SMG5 (peptide sequence: NVLDFYK, peptide start residue: 1004) (UniProt Q9UPR3)”: -0.13; “BAIAP2L1 (peptide sequence: SVSVATGLNMMK, peptide start residue: 329) (UniProt Q9UHR4)”: -0.204; “CIZ1 (peptide sequence: QVQLQLQK, peptide start residue: 418) (UniProt Q9ULV3)”: -0.145. Next, “RAB23 (peptide sequence: TIGVDFLER, peptide start residue: 41) (UniProt Q9ULC3)”: -0.15; “NAGK (peptide sequence: AGVDPLVPLR, peptide start residue: 60) (UniProt Q9UJ70)”: 0.0988; “TMCO1 (peptide sequence: KETITESAGR, peptide start residue: 105) (UniProt Q9UM00)”: 0.354.

Consider “MACF1 (peptide sequence: SLGQVSLTHPYSECDFK, peptide start residue: 2882) (UniProt Q9UPN3)”, for which the log2 fold change was -0.235. Next, “LNPEP (peptide sequence: LLGMSFMNR, peptide start residue: 76) (UniProt Q9UIQ6)”: -0.0153. Next, “TRMT6 (peptide sequence: AATACFGFPK, peptide start residue: 239) (UniProt Q9UJA5)”: -0.416; “RALY (peptide sequence: KSDVETIFSK, peptide start residue: 35) (UniProt Q9UKM9)”: 0.171. For “CHORDC1 (peptide sequence: VEANSTLLNVHIVFEGEK, peptide start residue: 257) (UniProt Q9UHD1)”, the log2 fold change was found to be 0.178. On to “SNX12 (peptide sequence: QGLEQFINK, peptide start residue: 120) (UniProt Q9UMY4)”, for which the log2 fold change stood at 0.103.

For “FBXO3 (peptide sequence: NKNEVFYQCPDQMAR, peptide start residue: 217) (UniProt Q9UK99)”, the log2 fold change was 0.378.
